# The list shows a part of the results. The main result of the screen is listed elsewhere. These columns were measured beside it and carry no call. Most of these compounds were active or inconclusive in the main read-out, so they are no random draw. The note in brackets gives the kind of curve behind each potency; many fits are weak.
# Experiment: qHTS Assay to Find Inhibitors of Chronic Active B-Cell Receptor Signaling
# Conditions: ABC-DLBCL IkBa-CBG/CBR reporter, luminescence ratio (green luciferase fused to IkBa over red control in TMD8 lymphoma cells), 4 h
# In short: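 TMD8 ABC-DLBCL cells carrying doxycycline-inducible green luciferase fused to IkappaBalpha plus unfused red luciferase were exposed to compounds (up to 46 uM) for 4 hrs at 37C. Activity came from the overlap-corrected green/red luminescence ratio.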
# [1] = measured here: CBR red luminescence, cell number
# [2] = measured here: IkBa-CBG green luminescence
SMILES,AC50 [1],AC50 [2]
O=c1[nH]c(CN2CC=C(c3ccccc3)CC2)nc2scc(-c3cccs3)c12,"3.16 µM [falling, single point]",–
CC(=O)c1cccc(OCC(=O)N2CCN(CC(=O)Nc3cccc(F)c3)CC2)c1,"0.0517 µM [rising, full curve, poor fit]",–
CCn1c(O)c(/C=N/NC(=O)c2ccncc2)c(=O)[nH]c1=S,"20.6 µM [falling, partial curve]",–
CC[C@@]1(O)C(=O)OCc2c1cc1n(c2=O)Cc2cc3c(NC(=O)CN)cccc3nc2-1,"35.5 µM [falling, single point]","8.91 µM [rising, partial curve]"
CC/C(=N\NC(=O)c1ccccc1)c1c(O)n(C2CCCCC2)c(=O)[nH]c1=O,"2 µM [falling, full curve]",–
Cc1c2ccncc2c(C)c2c1[nH]c1ccccc12,"5.8 µM [falling, partial curve]",–
COc1ccc(C(c2c(O)c3ccccc3oc2=O)c2c(C)n(C)n(-c3ccccc3)c2=O)cc1 (centres undefined),"1.84 µM [falling, partial curve]",–
CC(=O)c1cn(CC(=O)NCCc2c[nH]c3ccccc23)c2ccccc12,"11.2 µM [falling, partial curve]",–
O=C(N/N=C/c1c(O)n(C2CCCCC2)c(=S)[nH]c1=O)c1ccccc1O,"7.08 µM [falling, partial curve]",–
CC1(C)CC(CCNCc2ccc3c(c2)OCO3)(Cc2ccccc2)CCO1 (centres undefined),"11.2 µM [falling, partial curve]","14.1 µM [rising, partial curve, poor fit]"
O=C(CN1CCN(c2ccccc2F)CC1)Nc1cccnc1Cl,–,"11.2 µM [falling, partial curve, poor fit]"
CC(=O)Nc1ccc(C(=O)OCC(=O)Nc2ccc(Cl)cc2C(=O)c2ccccc2)cc1,"6.51 µM [rising, single point]",–
Cc1cc(C)c(N=Cc2c(O)[nH]c(=O)[nH]c2=O)c(C)c1,"22.4 µM [rising, single point]",–
COC(=O)C(O)(c1ccc(NC(=S)NC(=O)c2ccccc2)cc1)C(F)(F)F (centres undefined),"7.94 µM [falling, partial curve, poor fit]",–
COc1ccc(-n2c(/C=C/c3ccc(O)c(OC)c3)nc3ccccc3c2=O)cc1,"7.08 µM [falling, partial curve, poor fit]",–
O=C(c1ccc(CNS(=O)(=O)c2ccccc2)cc1)N1CCC2(CC1)OCCO2,"6.31 µM [rising, single point]",–
Cc1ccc(S(=O)(=O)Oc2ccc(/C=N/NC(=O)c3cccnc3)cc2)cc1,"17.8 µM [falling, single point]",–
O=C(N/N=C/c1c(O)n(C2CCCCC2)c(=S)[nH]c1=O)c1ccccc1,"0.794 µM [falling, full curve]",–
C[C@@H]1C[C@H]2OC(=O)C3(CO3)[C@H]2[C@H](O)[C@]2(C)C(=O)C3OC3[C@@H]12 (some centres undefined),"3.98 µM [rising, partial curve, poor fit]","0.501 µM [falling, full curve]"
C=C1[C@@H](C)[C@H]2[C@H](Cc3ccccc3)NC(=O)[C@]23OC(=O)/C=C/[C@H](O)CCC[C@@H](C)C/C=C/[C@H]3[C@@H]1O,"12.6 µM [rising, partial curve, poor fit]",–

SMILES,AC50 [1],AC50 [2]
O=c1c2ccccc2nc(/C=C\c2ccccc2[N+](=O)[O-])n1-c1ccccc1O,"14.1 µM [falling, single point]",–
Cc1ccccc1-n1c(O)c(/C=C2/C(c3ccccc3)=Nc3ccccc32)c(=O)[nH]c1=O,"11.6 µM [falling, partial curve, poor fit]",–
CCN(CC)C(=O)C1CCCN(c2ncnc3c2cnn3-c2cccc(C)c2)C1 (centres undefined),"14.1 µM [falling, partial curve, poor fit]",–
CN1CCC(O)(c2ccccc2)C2CCCC21 (centres undefined),"16.4 µM [falling, single point]",–
CCCCn1c(O)c(C(CC)=NCCN2CCOCC2)c(=O)[nH]c1=O,"29.1 µM [falling, single point]",–
Cn1cnc([N+](=O)[O-])c1Sc1ccc([N+](=O)[O-])cc1,"25.1 µM [falling, single point]",–
Cc1cc2ccccn2c1C(C[N+](=O)[O-])c1c(F)cccc1Cl (centres undefined),"12.6 µM [falling, partial curve, poor fit]",–
CCC(=NCc1ccco1)c1c(O)n(Cc2ccccc2)c(=O)[nH]c1=O,"25.1 µM [falling, single point]",–
c1ccc(CN2CCNCC2)nc1,"11.2 µM [rising, single point]",–
COc1ccccc1CNC(=O)C(NS(=O)(=O)c1ccc2c(c1)oc(=O)n2C)C(C)C (centres undefined),"0.146 µM [rising, full curve]",–
Cc1cc(C)cc(N2C(=O)NC(=O)/C(=C\C=C\c3ccco3)C2=O)c1,"29.1 µM [rising, single point]","20.6 µM [falling, single point]"
O=C(Cn1cnc2sc3c(c2c1=O)CCCC3)NCCCC(=O)N1CCC2(CC1)OCCO2,"2.59 µM [falling, partial curve]",–
CCc1ccc(CN2CCN(Cc3ccc(SC)cc3)CC2)cc1,"35.5 µM [rising, single point]",–
O=C(Nc1ccc2c(c1)OCCO2)c1cccn(Cc2ccccc2)c1=O,"17.8 µM [falling, single point]","2.51 µM [rising, full curve, poor fit]"
COc1cc2c3c(c1OC)-c1cc(O)ccc1CC3NCC2 (centres undefined),"1.84 µM [rising, partial curve, poor fit]",–
CCOC(=O)c1c(NC(NC(=O)CF)C(Cl)(Cl)Cl)sc2c1CCCC2 (centres undefined),"29.1 µM [falling, single point]",–
CCOC(=O)C1=C(C)OC(N)=C(C(=O)OCC)[C@@]12C(=O)N(CC(N)=O)c1ccccc12,"10.3 µM [rising, partial curve, poor fit]",–
CN1CCc2nc(SCc3cccc(Br)c3)c(C#N)cc2C1,"35.5 µM [falling, single point]",–
OC(Cc1ccccc1)(c1ccccc1)C1CN2CCC1CC2 (centres undefined),"10.3 µM [falling, single point]",–
Cc1ccc(C)c(NC(=O)CSc2nnc([C@@H](N)Cc3c[nH]c4ccccc34)o2)c1,"14.1 µM [falling, partial curve, poor fit]",–

# Some values from above.
# Entry for `Cc1cc(C)cc(N2C(=O)NC(=O)/C(=C\C=C\c3ccco3)C2=O)c1` under AC50 [2]: 20.6 µM [falling, single point]
# Entry for `CCOC(=O)c1c(NC(NC(=O)CF)C(Cl)(Cl)Cl)sc2c1CCCC2` (centres undefined) under AC50 [1]: 29.1 µM [falling, single point]
# Entry for `CCC(=NCc1ccco1)c1c(O)n(Cc2ccccc2)c(=O)[nH]c1=O` under AC50 [1]: 25.1 µM [falling, single point]
# Entry for `O=C(Nc1ccc2c(c1)OCCO2)c1cccn(Cc2ccccc2)c1=O` under AC50 [1]: 17.8 µM [falling, single point]

# The results go on:

SMILES,AC50 [1],AC50 [2]
O=c1c2ccccc2nc(/C=C/c2ccc(O)c(O)c2)n1-c1ccccc1,"14.1 µM [falling, partial curve]",–
COC(=O)C1=C(c2ccc(OC(F)(F)F)cc2)C[C@@H]2CC[C@H]1N2C(=O)NCc1cc(C)oc1C(F)(F)F,"29.1 µM [falling, single point]",–
O=C(O)c1cccc2c1NC(C(=O)O)C1CC(Sc3ccccc3[N+](=O)[O-])C(Cl)C21 (centres undefined),"23.1 µM [falling, single point]",–
Clc1ccc(C(OCCN2CCCCC2)c2ccccc2)cc1 (centres undefined),"29.1 µM [falling, single point]",–
O=C(NC1CN2CCC1CC2)c1cc(Cl)c([N+](=O)[O-])c2nc[nH]c12 (centres undefined),"23.1 µM [falling, single point]",–
O=C(O)C1(c2ccc(Cl)cc2)CCC1,"2.59 µM [falling, single point]",–
O=c1[nH]c(=S)n(Cc2ccc(F)cc2)c(O)c1C=NCC1CCCO1 (centres undefined),"0.82 µM [falling, full curve, poor fit]",–
COc1ccc(CC2(CCc3ccccn3)C(=O)NC(=O)N(c3ccccc3C)C2=O)cc1OC (centres undefined),"35.5 µM [rising, single point]",–
Cc1cccc(N2C(=O)NC(=O)/C(=C\c3cnn(-c4ccccc4)c3)C2=O)c1,"11.2 µM [rising, partial curve, poor fit]",–
N#Cc1c(Cl)nc(Cl)c2c1CCN(Cc1ccccc1)C2,"3.66 µM [falling, full curve]",–
C=CCN1C(=O)NC(=O)/C(=C/c2ccc(OC)c(COc3ccc(NC(C)=O)cc3)c2)C1=O,"12.6 µM [rising, single point]",–
CC1CC(C)CN(CC(=O)c2ccc(OC(F)F)cc2)C1 (centres undefined),"32.6 µM [falling, single point]",–
CC(Cc1ccccc1)NCCC(c1ccccc1)c1ccccc1 (centres undefined),"29.1 µM [falling, single point]",–
CC/C(=C\C=C\[C@@H]1C=C[C@@H]2CCC[C@H]2[C@@H]1C(=O)c1ccc[nH]1)[C@@H]1O[C@@H]([C@@H](C)C(=O)O)CC[C@@H]1C,"5.17 µM [falling, partial curve]","11.2 µM [rising, partial curve]"
C[C@]12CC[C@H](O)C[C@H]1CC[C@@H]1[C@@H]2C[C@@H](O)[C@]2(C)[C@@H](C3=CC(=O)OC3)CC[C@]12O,"7.31 µM [falling, partial curve, poor fit]",–
O=Cc1cn(Cc2cccc(F)c2)c2ccccc12,–,"8.2 µM [falling, partial curve, poor fit]"
CCc1ccc(N2C(=O)Nc3ccccc3C2(O)C(=O)N2CCN(c3ccccn3)CC2)cc1 (centres undefined),"11.2 µM [falling, partial curve, poor fit]",–
O=C(NCCc1ccc(F)cc1)c1coc(=O)c(Br)c1,"35.5 µM [falling, single point]",–

# Source: PubChem BioAssay AID493014 (National Center for Advancing Translational Sciences (NCATS), 2011)
